# ± gives the standard deviation. Only a part is listed here, and it is no random draw. Many entries were measured with a wide error. Some of the results follow.
# Legend:
# [1] = test system: MILI (PIWIL2) piRISC loaded with L1MC piRNA (26 nt); assay: pre-steady-state target cleavage rate (min^-1); higher = faster piRNA-guided slicing of the target; details: guide: L1MC piRNA 5'p-UAACUAAAUACUAUGCAAGCUGUAGG
# Summary of the method: (§1)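 At 33 °C in HEPES–potassium acetate buffer, a transcribed, DNA-blocked target RNA library […] was exposed for 0–8 or 0–960 min to 1 nM active affinity-purified piRISC carrying a single synthetic guide, with or without 500 nM GTSF1 partner protein. Uncleaved targets were sequenced and normalised to depth and to weakly complementary targets. With three trials pooled and k3 capped at 0.0001 min^-1, a burst-and-steady-state fit produced the pre-steady-state cleavage rate.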
# [2] = test system: MIWI (PIWIL1) piRISC loaded with L1MC piRNA (30 nt); assay: as above; details: guide: L1MC piRNA 5'p-UAACUAAAUACUAUGCAAGCUGUAGGUCCU
# Summary of the method: as §1
# [3] = test system: EfPiwi piRISC loaded with L1MC piRNA (26 nt); assay: pre-steady-state target cleavage rate (min^-1); guide: L1MC piRNA 5'p-UAACUAAAUACUAUGCAAGCUGUAGG; MIWI and MILI are mouse PIWI proteins and EfPiwi is from a freshwater sponge; tags in brackets are library labels; higher = faster piRNA-guided slicing of the target
# Summary of the method: as §1
# [4] = auxiliary factor: none (no GTSF1)
# [5] = auxiliary factor: 500 nM mouse GTSF1
# [6] = auxiliary factor: 500 nM Ephydatia muelleri Gtsf1
# [7] = auxiliary factor: none (no Gtsf1)
Sequence,"pre-steady-state target cleavage rate [1, 4]","pre-steady-state target cleavage rate [2, 5]","pre-steady-state target cleavage rate [2, 4]","pre-steady-state target cleavage rate [3, 6]","pre-steady-state target cleavage rate [1, 5]","pre-steady-state target cleavage rate [3, 7]"
UCCUGGAUGAGCUUGCAUAGUAUUUUCUAA,0.00046 ± 0.013,0.222 ± 0.052,0.00278 ± 0.0035,0.00391 ± 0.0026,–,–
UCCUGGAUGUCCUUGCAUAGUUUUUAGAUA,0.0011 ± 0.0057,0.00294 ± 0.004,0.00116 ± 0.0065,0.00217 ± 0.0042,–,–
UCCUGGUACUGCUUCCAUAGUAUUUAGUUA,0.00156 ± 0.0074,0.00354 ± 0.0061,0.000752 ± 0.012,0.000916 ± 0.0063,–,–
UCCUGGAUCAGCUUGCAGUAGUAUUUAGUUA,0.000531 ± 0.013,0.00343 ± 0.0037,0.0011 ± 0.0067,0.00203 ± 0.0056,–,–
UCCUGGAUGUCGAAUCAUAGUAUUUAGUUA,0.00131 ± 0.0037,0.00127 ± 0.0049,0.000812 ± 0.0072,0.000192 ± 0.028,–,–
UCCUGGUACAGCUUGCAUUCUAUUUAGUAA,0.00115 ± 0.009,0.0022 ± 0.0098,0.000703 ± 0.0056,0.000193 ± 0.037,–,–
UCCUCGAACAGCUUGCAUAGUAUUUAGUUA,–,1.39 ± 0.039,0.0825 ± 0.015,0.198 ± 0.038,0.3 ± 0.017,–
UCCUGCUACAGCUUCCAUAGAAUUUAGUUA,0.000568 ± 0.012,0.0338 ± 0.013,0.000398 ± 0.0065,0.00109 ± 0.0031,–,–
UCCUGGAUGUCCUUCCAUAGAAUUUAGUUA,0.000384 ± 0.011,0.00314 ± 0.0049,0.000696 ± 0.0068,0.000868 ± 0.0078,–,–
UCCUCCUUCAGCUUGCAUAGUAUUUAGUUA,–,1.23 ± 0.036,0.0537 ± 0.0085,0.158 ± 0.041,0.297 ± 0.019,–
UCCUGGAUCAGCUUCGUUAGUAUUUUCAAA,0.000514 ± 0.0067,0.00132 ± 0.0077,0.000719 ± 0.0079,0.00082 ± 0.0098,–,–
UCCUGGAUGUCCUAGCAAAGUAUUUAGUUA,0.00175 ± 0.0035,0.00384 ± 0.0042,0.00097 ± 0.0063,–,–,0.000129 ± 0.028
UCCUCGUACAGCUUGCUUAGUAUUUAGUUA,–,1.51 ± 0.069,0.0419 ± 0.0089,0.0519 ± 0.012,0.286 ± 0.016,–
UCCUGGAUGUCGAUGCAUAGUAUUUAGCUA,0.000397 ± 0.014,0.00198 ± 0.0053,0.000579 ± 0.011,0.000478 ± 0.0078,–,–
UCCUCCUACAGCUUGCAUAGUAUUUUCAUA,–,–,0.00298 ± 0.0035,0.00665 ± 0.0037,–,–
UCCUGGAUGUCGAUGCAUAGUAUUUGUUA,–,–,0.000672 ± 0.0099,0.000503 ± 0.0096,–,–
UCCUGGAUGAGCUUGCAUAGUAUAAACAAA,0.000567 ± 0.013,0.00322 ± 0.0044,0.000419 ± 0.0077,0.000721 ± 0.0048,–,–
UCCUGGUACAGCUUGCAUACAAUUUAGUAA,0.00152 ± 0.0044,0.0076 ± 0.0052,0.00166 ± 0.0037,0.00131 ± 0.0033,–,–
UCCUGGUACAGCUUGCUAUCAUAAAUCAAA [g15:g24:cont:t1A],–,–,0.000581 ± 0.013,0.000384 ± 0.0075,–,–
UCCUGCUACAGCUUGCAUAGAAUUUACAAA,0.00117 ± 0.0038,0.309 ± 0.065,0.00239 ± 0.0028,0.00254 ± 0.0035,–,–
UCCUGGAUGUCCUUGCUUAGUUUUUAGUUA,–,–,0.0026 ± 0.0039,0.000167 ± 0.019,–,–
UCCUGGAUGUCGAAGCAUUGAAUUUAGUUA,–,–,0.00041 ± 0.015,0.000718 ± 0.0078,–,–
UCCUGGAUCACGUUGCAUAGUAUUUUCAAA,0.00155 ± 0.0045,0.0017 ± 0.008,0.00162 ± 0.0061,0.000233 ± 0.019,–,–
UCCUGGAUGUCCUUCCAUAGUAUUUAGUUA,0.00155 ± 0.0037,0.00347 ± 0.0042,0.000585 ± 0.011,0.001 ± 0.0033,–,–
UCCUGCAUACAGCUUGCAUAGUAUUUAGUUA,–,1.63 ± 0.12,0.0686 ± 0.013,0.11 ± 0.032,0.554 ± 0.047,–
UCCUGGAUGUCGAAGCAUAGUAUUUAAGUUA,–,–,0.0011 ± 0.0064,0.000171 ± 0.024,–,–

# Not a retest: an excerpt of the list.
Sequence,"pre-steady-state target cleavage rate [1, 4]","pre-steady-state target cleavage rate [2, 5]","pre-steady-state target cleavage rate [2, 4]","pre-steady-state target cleavage rate [3, 6]","pre-steady-state target cleavage rate [1, 5]","pre-steady-state target cleavage rate [3, 7]"
UCCUGGUACUGCUUCCAUAGUAUUUAGUUA,0.00156 ± 0.0074,0.00354 ± 0.0061,0.000752 ± 0.012,0.000916 ± 0.0063,–,–
UCCUGGAUCAGCUUGCAGUAGUAUUUAGUUA,0.000531 ± 0.013,0.00343 ± 0.0037,0.0011 ± 0.0067,0.00203 ± 0.0056,–,–
UCCUGGAUGUCGAAUCAUAGUAUUUAGUUA,0.00131 ± 0.0037,0.00127 ± 0.0049,0.000812 ± 0.0072,0.000192 ± 0.028,–,–

# More results.

Sequence,"pre-steady-state target cleavage rate [1, 4]","pre-steady-state target cleavage rate [2, 5]","pre-steady-state target cleavage rate [2, 4]","pre-steady-state target cleavage rate [3, 6]","pre-steady-state target cleavage rate [1, 5]","pre-steady-state target cleavage rate [3, 7]"
UCCUGGAUCUCGUUGCAUAGUAUUUUCAAA,0.00163 ± 0.0034,0.00272 ± 0.0047,0.000987 ± 0.005,0.000283 ± 0.013,–,–
UCCUGGAACAGCUACCAUAGUAUUUAGUAA,–,–,0.00131 ± 0.0066,0.00249 ± 0.0036,–,–
UCCUGGAUGUGCUUCCAUAGUAUUUACUUA,0.000539 ± 0.011,0.00445 ± 0.0044,0.000702 ± 0.011,0.00153 ± 0.0059,–,–
UCCUGGAUGUGCUUGCAUUGUAUUUAGUAA,0.00232 ± 0.0036,0.0234 ± 0.0059,0.00578 ± 0.0023,0.00319 ± 0.0044,–,–
UCCUGGAUCAGCUACCAUAGUAUUUUCAAA,–,–,0.000853 ± 0.007,0.000188 ± 0.019,–,–
UCCUGGAACAGCUUCGAUAGUAUUUACAAA,–,–,0.000504 ± 0.016,0.00173 ± 0.0039,–,–
UCCUGGAUGUCGAAGCAUAUAUUUAGUUA,–,0.000543 ± 0.017,–,0.00031 ± 0.011,–,–
UCCUGGAUCAGCUUCGAUAGUAUUUAGUUA,–,–,0.00246 ± 0.0032,0.00503 ± 0.0041,–,–
UCCUCCUACAGCGUUGCAUAGUAUUUAGUUA,–,0.96 ± 0.057,0.0256 ± 0.0045,0.0299 ± 0.009,0.296 ± 0.021,–
UCCUGGAUGUCGAUCCAUAGUAUUUAGUUA,–,–,0.000314 ± 0.015,0.00078 ± 0.0081,–,–
UCCUGGAUGUCCUCUGCAUAGUAUUUAGUUA,–,–,0.00245 ± 0.0031,0.00412 ± 0.003,–,–
UCCUGGAUCAGCUUGCAUUGUAUUUUCAAA,–,–,0.00115 ± 0.0039,0.00169 ± 0.0032,–,–
UCCUGGAUGUCGAACGUAAGUAUUUAGUCA,–,–,0.000208 ± 0.018,–,–,< 0.0001
UCCUCUUACAGCUUGCAUAGUAUUUAGUUA,–,1.62 ± 0.055,0.061 ± 0.0099,0.243 ± 0.061,0.35 ± 0.015,–
UCCUCAUACAGCUUGCAUAGUAUUUAGUUA,–,1.47 ± 0.054,0.0664 ± 0.01,0.234 ± 0.064,0.319 ± 0.015,–
UCCUGGAUGUCCUUGCUUAGUAUUAAGUUA,0.00148 ± 0.0032,0.00413 ± 0.0044,0.000814 ± 0.007,0.000312 ± 0.011,–,–
UCCUGGAUCAGCUUCGUUAGUAUUUAGUAA,0.000545 ± 0.008,0.00163 ± 0.0066,0.000236 ± 0.009,0.0011 ± 0.0072,–,–
UCCUCCUACAGCUUGCAUUCAAUUUAGAAA,–,–,0.000334 ± 0.0096,0.00153 ± 0.0041,–,–
UCCUGGAUGUCGAUGCAUAGUAUUUUAGUUA,–,–,0.000782 ± 0.0092,0.00197 ± 0.0049,–,–
UCCUGGAUCAGCUUGGAUAGUAUUUUCAAA,–,0.00139 ± 0.0085,0.000476 ± 0.013,0.00105 ± 0.0045,0.000774 ± 0.013,–
UCCUGGAUGAGGUAGCAUAGUAUUUAGUUA,–,–,0.00215 ± 0.0029,0.00309 ± 0.0041,–,–
UCCUGGAUGUCGUUGACAUAGUAUUUAGUUA,–,–,0.00056 ± 0.016,0.00159 ± 0.0059,–,–
UCCUGGUACUCGUUGCAUAGUAUUUAGAAA,0.000673 ± 0.01,0.00249 ± 0.007,0.00112 ± 0.0085,0.00143 ± 0.0043,–,–
UCCUGGAACAGCUACGAUAGUAUUUUCAAA,–,–,0.000749 ± 0.0077,0.000397 ± 0.0086,–,–
UCCUGGAACAGCUACGAUAGUAUUUAGUUA,–,–,0.000453 ± 0.007,0.000241 ± 0.017,–,–

# — the supplement of paper PMC10338343
